Results on 67 compounds are retold here after PubChem BioAssay AID901 (National Center for Advancing Translational Sciences (NCATS), 2007).

This is one part of the list. Shown are side measurements of this screen, not its main read-out; they come without a call. The list favours compounds with an active or inconclusive main result. The note in brackets gives the kind of curve behind each potency; many fits are weak.

This experiment in a line: qHTS Assay for Identifying the Cell-Membrane Permeable IMPase Inhibitors. Conditions: CHO-M1 cells, IP1 accumulation, HTRF TR-FRET ratio; measured here: donor channel 620 nm AC50.
As to `COCCCN1C(=O)C(O)=C(C(=O)c2ccco2)C1c1ccccc1` (configuration not stated), the AC50 was 12.6 µM [rising, partial curve]. For `CCOC(=O)CN1CC23C=CC(O2)C(C(=O)Nc2ccc(OCC)cc2)C3C1=O` (configuration not stated) the value was 2.82 µM [rising, partial curve, poor fit]. The figure for `CCn1c(NC)cc(=O)n(C)c1=O` is 3.16 µM [falling, single point]; for `O=C(NCc1ccc(Cl)c(Cl)c1)c1ccco1` it is 2 µM [rising, full curve, poor fit]. For `COC(=O)c1ccc(C)c(NC(=O)CN(c2cc(OC)ccc2OC)S(C)(=O)=O)c1` the value was 0.01 µM [rising, full curve, poor fit]. On to `CCOC(=O)CN=C1CC(C)(C)CC2=C1Sc1ncnc(N(C)C)c1N2`, for which the AC50 is 12.6 µM [falling, single point]. For `Cc1ccc(-n2ncc3c(=O)[nH]c(SCC(=O)N4CCN(c5ccccc5)CC4)nc32)cc1` the value was 31.6 µM [rising, single point]. `COC(=O)c1ccc(NC(=O)CSc2nnc(-c3ccncc3)n2N)cc1`: the AC50 is 3.16 µM [falling, full curve, poor fit]. On to `Cc1ccc(N(Cc2cc3ccccc3[nH]c2=O)S(=O)(=O)c2ccccc2)cc1`, for which the AC50 was 0.00355 µM [rising, full curve, poor fit]. In the case of `COC(=O)C1=C(C)NC(=O)NC1c1ccsc1` (configuration not stated), the AC50 is 15.8 µM [falling, single point]. The figure for `CCCOc1ccc(C(=O)Nc2ccc(NC(=O)c3ccccc3)c(Br)c2)cc1` is 14.1 µM [rising, single point]; for `COC(=O)C1=C(C)NC(C)=C(C(=O)OC)C1C1CC=CCC1` (configuration not stated) it is 35.5 µM [rising, single point]. `CCCOc1cccc(C2/C(=C(/O)c3ccccc3)C(=O)C(=O)N2CCN(C)C)c1` (configuration not stated): the AC50 is 1 µM [falling, full curve, poor fit]. Consider `Cc1ccc(N=C2NC(=O)c3cc([N+](=O)[O-])ccc32)cc1`, for which the AC50 is 35.5 µM [rising, single point].

As to `O=C(NCCSc1ccccc1)c1ccccc1`, the AC50 was 0.02 µM [falling, full curve, poor fit]. The figure for `Cc1cc(C)n(C(=O)CNc2ccc(C)c(C)c2)n1` is 6.31 µM [falling, single point]; for `COc1ccc2nc(N3CCC(C)CC3)c(C#N)cc2c1` it is 0.0316 µM [falling, full curve, poor fit]; for `CCc1cc(C=C(Cl)Cl)oc(=O)c1C` it is 0.0126 µM [rising, partial curve, poor fit].

Consider `Nn1c(SCc2cn3ccsc3n2)nnc1-c1ccncc1`, for which the AC50 was 0.631 µM [falling, full curve]. The figure for `CCCCc1nnc(NC(=O)C2CCCO2)s1` (configuration not stated) is 7.08 µM [falling, partial curve, poor fit]; for `O=C(N/C(=C/c1cccc(Br)c1)c1nc(=S)[nH][nH]1)c1ccccc1` it is 14.1 µM [rising, single point]. The figure for `COc1cc(C)nc(N2CCCC(C(=O)Nc3cccc(Cl)c3C)C2)n1` (configuration not stated) is 10 µM [falling, partial curve, poor fit]. `Cc1ccc(C)c(C(=O)n2cnnc2N)c1`: the AC50 is 1.26 µM [rising, single point]. Take `O=C(Nc1sc2c(c1C(=O)O)CCC2)c1cccs1`: the AC50 was 31.6 µM [falling, single point].

Turning to `COc1ccc(/C=N\n2nnc3ccccc32)cc1`, the AC50 was 0.251 µM [falling, full curve, poor fit]. The figure for `CCC(=O)N1C(=O)CCN(C(C)=O)c2ccccc21` is 0.158 µM [falling, full curve]; for `CCn1c(SCC(=O)Nc2cc(C)on2)nnc1-c1ccccc1` it is 0.158 µM [rising, full curve, poor fit]; for `Cc1ccc(C(=O)c2c[nH]cc2-c2ccccc2)cc1` it is 0.794 µM [falling, full curve]. In the case of `COc1ccc(-c2cc(C(F)(F)F)c(C#N)c(SCC(=O)Nc3nc(C)co3)n2)cc1`, the AC50 is 2 µM [rising, full curve, poor fit]. For `Cc1n[nH]c(C)c1S(=O)(=O)N1CCCC(C(=O)N2CCN(c3ccc(Cl)cc3)CC2)C1` (configuration not stated) the value was 12.6 µM [falling, single point]; for `O=C(c1ccccn1)c1conc1C(=O)c1ccc(Br)cc1`, 0.0398 µM [rising, full curve, poor fit]; for `CCOC(=O)c1ccc(N2CN=C3SCC(=O)N3C2)cc1`, 0.794 µM [falling, full curve, poor fit]. For `CCNC(=S)N/N=C/c1cccs1` the value was 10 µM [falling, partial curve]; for `CCCc1ccc(OCc2ccc(C(=O)Nc3ccccc3C(=O)OC)o2)cc1`, 2.82 µM [falling, single point]; for `O=C(NC1CCCCCC1)C1c2ccccc2C(=O)N1C1CC1` (configuration not stated), 5.01 µM [falling, single point]. As for `CCOC(=O)N1CCN(C(=O)CCc2c(C)nc3c(c(C)nn3-c3ccc(C)c(C)c3)c2C)CC1`, the concentration at half-maximal activity (AC50) was 3.98 µM [rising, partial curve]. In the case of `COc1ccc2c(c1OC)C(=O)N(c1cccc(C)c1)C2=O`, the AC50 is 1 µM [falling, full curve, poor fit]. In the case of `O=C(O)CCSc1nnc(-c2ccncc2)n1-c1ccccc1`, the AC50 was 0.00794 µM [falling, full curve, poor fit].

Regarding `CC1CCCC(C)N1NC(=O)c1ccc(Cl)c(S(N)(=O)=O)c1` (configuration not stated), the AC50 was 3.16 µM [falling, single point]. For `O=C(COC(=O)c1ccc(Br)o1)NCCCc1ccccc1` the value was 10 µM [rising, partial curve, poor fit]; for `COc1ccc(C/C(N)=N/n2cnnc2)cc1`, 0.0251 µM [rising, partial curve, poor fit]; for `CCc1sc(N(C(=O)Cc2ccccc2)c2ccccc2)nc1-c1ccccc1`, 2 µM [falling, partial curve].

For `CCOC(=O)c1ccc(NS(=O)(=O)c2cc(-c3nnnn3C(C)C)ccc2OC)cc1`, the AC50 was 0.02 µM [rising, full curve, poor fit]. For `C=CCSc1nnc2nc3[nH]c4c(C)cccc4c3nn12` the value was 0.0631 µM [rising, full curve, poor fit]. The figure for `CCn1c(C(=O)N2CCCC(C(=O)O)C2)cc2sccc21` (configuration not stated) is 31.6 µM [falling, single point]; for `CCN(Cc1ccccc1)C(=O)CSc1nc(C)cc(C)c1C#N` it is 35.5 µM [falling, single point]; for `COc1ccc(-c2csc(NC(=O)c3ccco3)n2)cc1` it is 0.631 µM [falling, full curve].

Take `CCOC(=O)C1=C(C)N(C)C(C)=C(C(=O)OCC)C1c1ccccc1`: the AC50 was 0.02 µM [falling, full curve]. Turning to `S=C1N(c2ccccc2)C(c2ccccc2)N2CCCN12` (configuration not stated), the AC50 is 0.251 µM [falling, full curve, poor fit]. The figure for `COc1ccc2c(c1)c(=O)oc1cc3occ(C(C)(C)C)c3cc12` is 25.1 µM [rising, partial curve].

Turning to `Cc1nc(N=Nc2cc(S(=O)(=O)O)c3cc([N+](=O)[O-])cc(S(=O)(=O)O)c3c2)c(COP(=O)(O)O)c(C=O)c1O`, the AC50 is 12.6 µM [falling, partial curve, poor fit]. For `Cc1noc(C)c1S(=O)(=O)N1CCCC(C(=O)Nc2cccnc2)C1` (configuration not stated) the value was 0.00316 µM [falling, full curve]; for `CCOc1ccc2cc(S(=O)(=O)n3ccnc3C)ccc2c1`, 0.1 µM [falling, full curve, poor fit]. For `O=C(NCc1ccco1)c1cc2nc(-c3cccs3)cc(C(F)(F)F)n2n1` the value was 0.126 µM [rising, full curve, poor fit].

Regarding `C=C(C)COc1ccc(-c2ncncc2Oc2ccc(OC)cc2)c(O)c1`, the AC50 is 12.6 µM [falling, partial curve]. As for `CCCCNC(=O)c1ccc2c(=O)n(CCCOCC)c(=S)[nH]c2c1`, the AC50 was 0.0398 µM [rising, full curve, poor fit]. For `NC(=S)c1cc2ccc(O)cc2oc1=O` the value was 12.6 µM [rising, partial curve]; for `Cc1cccc(N(C(=O)CNC(=O)c2ccco2)C(C(=O)NC2CCCC2)c2ccncc2)c1` (configuration not stated), 31.6 µM [falling, single point].

Regarding `On1onc2c3cc(-c4ccccc4)nc3ccc21`, the AC50 is 12.6 µM [falling, single point].

Take `COc1ccccc1N1C(=O)CCC1(C#N)c1ccccc1` (configuration not stated): the AC50 is 5.62 µM [rising, single point]. The figure for `O=C(CCS(=O)(=O)c1cc(Br)cc2c1N(C(=O)C1CC1)CC2)NCc1ccco1` is 14.1 µM [falling, partial curve, poor fit]; for `Cc1cc(F)ccc1S(=O)(=O)Nc1ccccc1C(=O)Nc1ccc2[nH]c(=O)[nH]c2c1` it is 3.98 µM [rising, single point]. The figure for `Cc1ccc(C(=O)C2=C(O)C(=O)N(c3ncccn3)C2c2ccc(Cl)cc2)o1` (configuration not stated) is 12.6 µM [rising, partial curve]. The figure for `Cc1nn(-c2ccc(F)cc2)c2sc(C(=O)O)cc12` is 0.631 µM [falling, single point]; for `Nc1ncnc2c1nc(Sc1ccc(Cl)cc1)n2[C@@H]1O[C@H]2COP(=O)(O)O[C@@H]2[C@H]1O` it is 3.16 µM [falling, single point]. Take `Cc1ccccc1Cn1c2ccccc2c2cn[nH]c(=O)c21`: the AC50 was 3.98 µM [rising, full curve, poor fit]. As for `COc1cc(N2CCCC2)c(OC)cc1/C=C(/C#N)c1ccc(F)cc1`, the AC50 was 10 µM [falling, partial curve].

For orientation: AC50 means the concentration at which the activity in the assay is half-maximal.
